For two molecules, binding results are on record in patent US20130224313A1 (CENTRO DE INGENIERIA GENETICA Y BIOTECNOLOGIA, published 2013).

Chains of the proteins cited; added tags and fusions are not shown. Lines headed by an entry give the natural chain unless they say otherwise; changes in a name come on top. Residues count along the entry.
UniProt Q8N668: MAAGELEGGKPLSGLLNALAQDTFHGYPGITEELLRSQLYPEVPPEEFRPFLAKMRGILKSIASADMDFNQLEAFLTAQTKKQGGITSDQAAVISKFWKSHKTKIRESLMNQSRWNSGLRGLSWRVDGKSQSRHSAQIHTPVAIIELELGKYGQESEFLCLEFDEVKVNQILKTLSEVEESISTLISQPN
COMMD1 protein (endogenous, in tumor cells and their total protein extracts): residues 2-190 of Q8N668

In assay [1] the target is COMMD1 protein (endogenous, in tumor cells and their total protein extracts) (human) (UniProt Q8N668). Put plainly: pulldown from SW948 extract, Western blot (FIG. 2A). (In western blotting, separated proteins are transferred to a membrane and probed.)
Assay [2] has the same target. Put plainly: pulldown: biotinylated peptide on streptavidin sepharose, SW948 total extract, anti-COMMD1 Western blot.
The target in assay [3] is COMMD1, complete sequence of the COMMD1 gene (two-hybrid plasmid) (human) (UniProt Q8N668). Put plainly: yeast two-hybrid mating (FIG. 1).

No constants are given. Whether binding was seen depends on the method and setting. For part of these data: In cells and extracts the contact can be indirect. Some results given as binding are weak or reduced against the parent protein; the word gives no strength.

For the molecule HARIKPTFRRLKWKYKGKFW (biotinylated (site not stated)) [synthetic L2 peptide, biotinylated, attached to streptavidin sepharose resin], the binding result in assay [1] and in assay [2] was “binds” throughout.

B1: L2 peptide expressed from plasmid pGBKL2-1 (pGBKT7 vector) in yeast strain AH109 (peptide)
chain: HARIKPTFRRLKWKYKGKFW
notes: Two-hybrid bait; not shown: fusion partner encoded by the pGBKT7 two-hybrid bait vector
On to B1, for which, in assay [3], the binding entry is reported as “binds”.
